Data reported in article PMC11183095.
Numbering of substitutions follows the chain as printed. No constants are given. Whether binding was seen depends on the method and setting. In cells and extracts the contact can be indirect. Some entries that bind do so weakly or less than the wild type. Tags and fused reporters may be left off the sequences shown.

Amino acid sequences for entries named in this document (tags omitted).
UniProt P14618: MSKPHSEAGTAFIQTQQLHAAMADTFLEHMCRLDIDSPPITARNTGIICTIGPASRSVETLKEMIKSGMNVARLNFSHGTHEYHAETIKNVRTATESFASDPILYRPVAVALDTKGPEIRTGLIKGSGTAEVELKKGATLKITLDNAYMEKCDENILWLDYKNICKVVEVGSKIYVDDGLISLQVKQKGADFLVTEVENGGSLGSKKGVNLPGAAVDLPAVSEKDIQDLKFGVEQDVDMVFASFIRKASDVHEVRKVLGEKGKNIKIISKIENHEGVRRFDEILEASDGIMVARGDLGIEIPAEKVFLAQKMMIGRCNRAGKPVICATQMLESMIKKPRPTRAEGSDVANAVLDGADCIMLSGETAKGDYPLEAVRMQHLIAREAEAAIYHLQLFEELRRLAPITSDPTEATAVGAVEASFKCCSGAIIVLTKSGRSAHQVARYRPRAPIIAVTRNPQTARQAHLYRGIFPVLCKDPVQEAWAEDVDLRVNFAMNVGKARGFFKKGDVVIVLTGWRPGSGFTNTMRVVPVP

Assays:
Experiment in all cases: co-IP; anti-Flag immunoprecipitation from A549 transfected with Flag-PGAM1 or its mutants for 48 h, western blot for PKM2; with or without PKM2 or HA-Src overexpression, EGF, FGF1 or PDGFA
[1] = molecular target: T1, Flag-PGAM1 Y50E (human) (UniProt P18669)
T1 sequence: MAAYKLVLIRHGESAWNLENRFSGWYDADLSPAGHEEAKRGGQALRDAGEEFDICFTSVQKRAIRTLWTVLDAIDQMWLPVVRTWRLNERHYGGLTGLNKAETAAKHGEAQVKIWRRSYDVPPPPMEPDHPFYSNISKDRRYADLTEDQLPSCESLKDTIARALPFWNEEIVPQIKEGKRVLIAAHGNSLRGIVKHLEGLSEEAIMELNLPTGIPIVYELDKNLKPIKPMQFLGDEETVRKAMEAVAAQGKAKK

[2] = molecular target: T2, Flag-PGAM1 Y26F (human) (UniProt P18669)
T2 sequence: T1 sequence with Y26F, E50Y

[3] = molecular target: T3, Flag-PGAM1 Y119E (human) (UniProt P18669)
T3 sequence: T1 sequence with E50Y, Y119E

[4] = molecular target: T4, Flag-PGAM1 Y26E (human) (UniProt P18669)
T4 sequence: T1 sequence with Y26E, E50Y

[5] = molecular target: T5, Flag-PGAM1 Y92E (human) (UniProt P18669)
T5 sequence: T1 sequence with E50Y, Y92E

[6] = molecular target: T6, Flag-PGAM1 Y92F (human) (UniProt P18669)
T6 sequence: T1 sequence with E50Y, Y92F

Measured: binding

Pyruvate kinase M2 (PKM2), endogenous (from UniProt P14618 1-531) (enzyme)
binds: all assays above
